Article PMC3322156

Chains of the proteins cited; added tags and fusions are not shown. Lines headed by an entry give the natural chain unless they say otherwise; changes in a name come on top.
UniProt Q9CQJ4: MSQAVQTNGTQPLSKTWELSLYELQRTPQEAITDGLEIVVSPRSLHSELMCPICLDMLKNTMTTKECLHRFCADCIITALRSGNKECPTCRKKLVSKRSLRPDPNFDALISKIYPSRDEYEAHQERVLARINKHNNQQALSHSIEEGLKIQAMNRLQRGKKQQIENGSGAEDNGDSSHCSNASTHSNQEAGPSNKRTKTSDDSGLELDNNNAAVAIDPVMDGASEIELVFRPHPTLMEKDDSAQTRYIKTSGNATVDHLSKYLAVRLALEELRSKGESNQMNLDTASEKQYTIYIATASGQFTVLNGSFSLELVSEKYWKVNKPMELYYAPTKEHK

B1: Phc2 (protein, UniProt Q9QWH1 1-850)
chain: MENELPVPHTSNRASVTTNTSGTNSSSGCISSSGGGGGSGGRPTAPQISVYSGIPDRQTVQVIQQALHRQPSTAAQYLQQMYAAQQQHLMLQTAALQQQHLSSAQLQSLAAVQQASLVANRQGSTPGSSVSSQAPAQSSSLNLAASPAAAQLINRAQSVNSAAASGLAQQAVLLGNTSSPALTASQAQMYLRAQMLIFTPTATVATVQPELCTGSPARPPTPAQVQNLTLRTQQTPAAAASGPPPTQPVLPSLALKPTPSSSQPLPAPPQGRTMAQGSPAGAKPSGTDNAPETLKAGDGNCNMEGRPGPGRAVPAVATHPLIAPAYAHLQSHQLLPQPPAKHPQPQFVAQQQPQPPRPAPQVQSQPQLASVSPSLALQSSPEDHALPLGSVTQALPLQCSTTHVHKPGNSQQCHLPTLDTGSQNGHPEGGSHPPQRRFQHTSAVILQVQPASPVTPQQCAPDDWKEVVPAEKSVPVARPGPSPHQQAIIPAIPGGLPGPKSPNIQQCPAHETGQGIVHALTDLSSPGMTSGNGNSASSIAGTAPQNGENKPPQAIVKPQILTHVIEGFVIQEGAEPFPVGRSSLLVGNLKKKYAQGFLPEKPPQQDHTTTTDSEMEEPYLQESKEEGTPLKLKCELCGRVDFAYKFKRSKRFCSMACAKRYNVGCTKRVGLFHSDRSKLQKAGTTTHNRRRASKASLPTLTKDTKKQPSGTVPLSVTAALQLAHSQEDSSRCSDNSSYEEPLSPISASSSTSRRRQGQRDLDLPDMHMRDLVGVGHHFLPSEPTKWNVEDVYEFIRSLPGCQEIAEEFRAQEIDGQALLLLKEDHLMSAMNIKLGPALKIYARISMLKDS
B2: L3mbtl3 (protein, UniProt Q8BLB7 1-883)
chain: MTESASSTSGQEFDVFSVMDWKDGVGTLPGSDLKFRVNEFGALEVITDESEMESVKKATATTTWMVPTAQDAPTSPPSSRPVFPPAYWTSPPGCPTVFSEKTGVPFRLKEQSKADGLQFCENCCQYGNGDECLSGGKYCSQNCARHAKDKDQKDERDGGEDNDEEDPKCSRKKKPKLSLKADSKDDGEERDDEMENKQDGRILRGSQRARRKRRGDSAVLKQGLPPKGKKTWCWASYLEEEKAVAVPTKLFKEHQSFPYNKNGFKVGMKLEGVDPDHQAMYCVLTVAEVCGYRIKLHFDGYSDCYDFWVNADALDIHPVGWCEKTGHKLRPPKGYKEEEFNWQSYLKTCKAQAAPKSLFENQNITVIPSGFRVGMKLEAADKKSPSVICVATVTDMVDNRFLVHFDNWDESYDYWCESNSPHIHPVGWCKEHRRTLITPPGYSHVKHFSWDKYLEETNSLPAPARAFKVKPPHGFQKKMKLEAVDKRNPLFIRVATVADTDDHRIKVHFDGWSSCYDYWIDADSPDIHPVGWCSKTGHPLQAPLSPAELMEPSETGGCPTLGCRGVGHFKKSRYLGTQSGANCPYSEINLSKERIFPDRLSGDTSPPTTPSFPRSKRMDTRESSSSPETREKHANNFKEDSEKKKENEVKTSAEAKVVREEPTPSVQQSQPPQQVQQVQHAQPPQQAQKAPQAQQAQQAQQAQQAPQAPQTPQPQQAPQVQQAQQAPQAQQAQQPQQAQQPQQAPPVQQPQQVQQAQPTQQQAQTQQQAQRRSAVFLSFKPPIPCLPLRWEQQSKLLPTVAGIPASRVSKWSTDEVSEFIQSLPGCEEHGKVFKDEQIDGEAFLLMTQTDIVKIMSIKLGPALKIFNSILMFKAAEKNSHNEL
B3: HMG20a (protein, UniProt Q9DC33 1-346)
chain: MESLMASSTLPPLFADEDGSKESNDLATSGLTHPEGPYGSAATSTTNPEFVEDLSQGQLLQSEASNAVEGNEQRPEDEQRSKRGGWSKGRKRKKPLRDSNAPKSPLTGYVRFMNERREQLRAKRPEVPFPEITRMLGNEWSKLPPEEKQRYLDEADRDKERYMKELEQYQKTEAYKVFSRKTQDRQKGKSHRQDAARQATHDHEKETEVKERSVFDIPIFTEEFLNHSKAREAELRQLRKSNMEFEERNAALQKHVESMRTAVEKLEVDVIQERSRNTVLQQHLETLRQMLTSSFASMPLPGSGEIPTVDTIDSYMNRLHSIILANPQDNENFIATVREVVNRLDR

Key:
[1] = molecular target: Ring1B (mouse (endogenous in ESCs)) (UniProt Q9CQJ4); test: affinity purification with mass spectrometry; IP with anti-Ring1B (MBL, D139-3) from 400 ug ESC nuclear extract (WT cells, or Ring1B-/- cells rescued with Ring1BI53A), Protein G Sepharose 2 h at 4 C, washes BC300 (300 mM NaCl, 0.05% NP40) and BC100; 4-20% SDS-PAGE, bands cut, nLC-ESI-MS/MS; peptides also in the control IgG lane discarded; IgG heavy and light chain bands omitted
Ring1BI53A = Ring1BI53A (UniProt Q9CQJ4); test: as above

Binder	binding [1]	binding (Ring1BI53A)
B1	binds	binds
B2	binds	binds
B3	binds	binds

These are yes or no findings as the source states them, for the method shown. Binding seen in cells or lysates may run through a third protein. A yes stands for co-enrichment or nearness to the bait. Other partners may have been found.
